Data: doi:10.1101/330878
Results are given in words; binding and its absence hold for the method and conditions named. Binding can be weak; no strength is given.

Target: DipA (c-di-GMP phosphodiesterase PA5017) (Pseudomonas aeruginosa) (UniProt Q9HUF2)
Assay: two-hybrid

## ParP (Par-like partitioning protein of P. aeruginosa) (from UniProt G3XCY3)
  binding: binds
